Results published in patent US9198890B2, “Compositions and methods for treating and preventing coronary heart disease” (priority 2011, dated 2015).
For at least one compound, name, drawing or mass did not settle the structure.

Assays:
[1] = test system: lathosterol (a marker of cholesterol synthesis); settings: 28 subjects; cited from earlier work
[2] = test system: elderly individuals at risk of vascular disease; settings: active treatment group, Pravastatin 40 mg/day, 3.2 year period; cited from earlier work
LDL-C [3] = settings: active treatment group, Pravastatin 40 mg/day, 3.2 year period; cited from earlier work
LDL-C [4] = test: PROSPER study: lipid (LDL-C, HDL-C, triglyceride) response to Pravastatin 40 mg/day, overall and by SLCO1B1/LXRA genotype; assay type: in vivo, human; settings: carriers versus wildtype; elderly population
Method: The effect of SNPs at nucleotide positions 388 (e.g. A>G) and 625 (e.g. T>C) of the SLCO1B1 gene and also at nucleotide position −115 (e.g. G>A) of the LXRA gene on responsiveness to Pravastatin in subjects of various genotypes was assessed by analyzing the correlation of different SNP genotypes with the 6 month and 12 month changes in TC and LDL-C levels in treated subjects, as shown below in Table 5. Neither the presence of the LXRA SNP at nucleotide position −115 nor the SLCO1B1 SNP at nucleotide position 388 were associated with lipid lowering. […] The percentage reductions in LDL-C given are for the 6 month time point (Table 5).
Biochemical and DNA analysis: Total cholesterol (TC), HDL-C, and triglycerides were assessed in subjects after an overnight fast at 6 months, and at 12 months, and LDL-C was calculated by the Friedewald formula, as previously described (Shepherd J et al. (2002) Lancet 360:1623-30). Apolipoprotein B (apoB) was measured only at baseline as described. […] ApoE phenotype was determined on plasma samples by Western blotting, using the method of Havekes et al. in the central laboratory of the Royal Infirmary in Glasgow, Scotland (Havekes L M et al. A rapid micro method for apolipoprotein E phenotyping directly in serum. J Lipid Res (1987) 28:455-63). […]

For CC[C@H](C)C(=O)O[C@H]1C[C@H](O)C=C2C=C[C@H](C)[C@H](CC[C@@H](O)C[C@@H](O)CC(=O)O)[C@H]21 [Pravastatin, pravastatin], the “effect of SLCO1B1 haplotype on degree of lathosterol lowering induced by pravastatin” value [1] is given as “significantly affected”, the “decrease of risk of developing CHD” value [2] is given as 19% and the “mean LDL-C reduction” value (LDL-C [3]) is given as 32%. The “LDL-C lowering in response to Pravastatin in carriers of the SLCO1B1 625T>C SNP (rs4149056)” value (LDL-C [4]) was “significantly less Pravastatin induced LDL-C lowering”.
